PubChem BioAssay AID540256 (National Center for Advancing Translational Sciences (NCATS), 2011)
Screen size: about 300,000 compounds; about 3,700 (1.2%) were called active. The shares of active, inactive and inconclusive entries below differ from those in the screen. The call rests on the fitted dose curve; tested in HEK293 cells. Where the call is inconclusive, the potency comes from a doubtful curve fit.

experiment: qHTS for Inhibitors of binding or entry into cells for Lassa Virus; settings: Lassa virus pseudotype entry inhibition, cell reporter; activity change, negative = inhibition: at 37.9 µM (top of the series) unless noted; further: nearly all actives have a fitted effect of over 50% in size
On the % scale 0 is the no-effect control and ±100 the full control effect; potency means the concentration at half of the fitted maximal effect.

Structure (SMILES) | Potency | activity change, negative = inhibition
COc1ccc(N2C(=O)/C(=C/c3ccc([N+](=O)[O-])cc3)C=C2c2ccccc2)cc1 | inconclusive: 11.6 µM [inhibitor, partial curve, poor fit] | 
COc1cccc(NC(=O)c2cccc(OC)c2OC)c1 | inconclusive: 1.12 µM [activator, full curve, poor fit] | 
Cc1ccnc(NS(=O)(=O)c2ccc(NS(=O)(=O)c3cc(Cl)ccc3Cl)cc2)n1 | inconclusive: 6.31 µM [activator, full curve, poor fit] | 
Cc1cc(C)c(S(=O)(=O)/N=C2/C=C(SCC(=O)O)C(=O)c3ccccc32)cc1C |  | inactive: -19.3% [at 46.1 µM]
CCC1CN(C(=O)Nc2ccc(Br)cc2F)c2ccccc2S1 (configuration not stated) |  | inactive: 7.76% [at 46.1 µM]
CCOc1ccc(OCC)c(NC(=O)CCc2nc3cccnc3n2-c2ccccc2)c1 |  | inactive: -5.34% [at 46.1 µM]
O=c1c2ccccc2nc(-c2ccc(Cl)c(Cl)c2)n1O | inconclusive: 17.8 µM [inhibitor, single point] | 
C/C(=C\c1ccccc1)CN1CCC(C(=O)N2CCCCC2)CC1 |  | inactive: 16.5%
Cc1[nH]c2ccccc2c1C1(O)C(=O)N(Cc2ccccc2Cl)c2ccccc21 (configuration not stated) | inconclusive: 2.82 µM [inhibitor, full curve, poor fit] | 
C=CCN(CC=C)S(=O)(=O)c1ccc(NC(=S)NC(=O)/C=C/c2ccccc2)cc1 | inconclusive: 3.55 µM [inhibitor, partial curve, poor fit] | 
O=C1CSc2ccc(C(=O)O)cc2N1 |  | inactive: -0.134%
COc1ccc(Cc2nc3ccc(C(=O)NCCc4ccccn4)cc3o2)cc1OC | inconclusive: 11.2 µM [inhibitor, partial curve, poor fit] | 
O=c1c2cn[nH]c2[nH]c(=S)n1-c1cccc(Cl)c1 | inconclusive: 35.5 µM [inhibitor, partial curve, poor fit] | 
O=C(CSc1nnc(-c2ccc(Cl)cc2)o1)Nc1ccc(F)cc1 | inconclusive: 3.98 µM [activator, full curve, poor fit] | 
Cc1ccccc1-c1nnc(-c2ccccc2)o1 | inconclusive: 1.26 µM [activator, single point] | 
O=C(Nc1ccc(F)cc1)C1CCN(C(=O)NCc2ccccc2)CC1 | inconclusive: 3.55 µM [inhibitor, single point] | 
COc1ccc(Nc2cc(C)nc3c(C)c(C)ccc23)cc1 | inconclusive: 12.6 µM [inhibitor, single point] | 
CCc1ccc(C2CC(=O)c3c([nH]c(C(=O)OCCOc4ccccc4)c3C)C2)cc1 (configuration not stated) | inconclusive: 3.16 µM [inhibitor, single point] | 
O=C([C@H](Cc1ccccc1)N1C(=O)c2ccccc2C1=O)N1CCOCC1 |  | inactive: 0.478% [at 46.1 µM]
Cc1cccc(C)c1NC(=O)CN(C)C(=O)CCc1nc2sc3c(c2c(=O)[nH]1)CCCC3 |  | inactive: -4.14%
Cc1ccc(NC(=O)C(CC(C)C)NS(=O)(=O)c2ccc3c(c2)oc(=O)n3C)c(C)c1 (configuration not stated) |  | inactive: -3.48% [at 46.1 µM]
c1ccc(SCCCCNC2CCCC2)cc1 | inconclusive: 29.1 µM [inhibitor, single point] | 
CC(=O)c1c(C)[nH]c(C(=O)NCCc2ccccc2)c1C | inconclusive: 2.24 µM [activator, partial curve, poor fit] | 

Individual results from the entries so far.
activity change, negative = inhibition with O=C1CSc2ccc(C(=O)O)cc2N1 reads inactive: -0.134%
Potency with Cc1ccccc1-c1nnc(-c2ccccc2)o1 reads inconclusive: 1.26 µM [activator, single point]
Potency with C=CCN(CC=C)S(=O)(=O)c1ccc(NC(=S)NC(=O)/C=C/c2ccccc2)cc1 reads inconclusive: 3.55 µM [inhibitor, partial curve, poor fit]
Potency with c1ccc(SCCCCNC2CCCC2)cc1 reads inconclusive: 29.1 µM [inhibitor, single point]

Next part:

Structure (SMILES) | Potency | activity change, negative = inhibition
COc1cc(OC)cc(C(=O)NNC(=O)c2ccc3ccccc3n2)c1 | inconclusive: 35.5 µM [inhibitor, single point] | 
COc1ccc(C(=O)Nc2nnc(C)s2)cc1 |  | inactive: 0.459% [at 46.1 µM]
COc1ccc(N(CC(=O)NCc2ccc(Cl)cc2)S(=O)(=O)c2ccccc2[N+](=O)[O-])c(OC)c1 | inconclusive: 35.5 µM [inhibitor, partial curve, poor fit] | 
Cc1cc(C)c2nc(N3CCCC(C(=O)NCCCN4CCOCC4)C3)sc2c1 (configuration not stated) | inconclusive: 0.092 µM [activator, full curve, poor fit] | 
CCCCOC(=O)CSc1nnc(-c2ccc(C)cc2)o1 |  | inactive: 22.8% [at 46.1 µM]
Nc1n[nH]c(C(F)(F)F)c1-c1ccccc1 |  | inactive: 13% [at 46.1 µM]
C=CCc1cccc(/C=N/NC(=O)CCCNc2ccc(C)cc2)c1O | inconclusive: 3.16 µM [inhibitor, partial curve, poor fit] | 
CCOC(=O)N1CCC(NC(=O)CSCc2nc(-c3ccccc3Cl)oc2C)CC1 | inconclusive: 6.31 µM [inhibitor, full curve, poor fit] | 
O=C(CSCc1ccco1)c1cccs1 | inconclusive: 11.2 µM [activator, single point] | 
COc1cc(/C=C/c2c([N+](=O)[O-])c(=O)n(C)c(=O)n2C)cc(OC)c1OC | inconclusive: 7.3 µM [inhibitor, partial curve, poor fit] | 
CC1(C)Cc2c(sc(NC(=O)c3ccccc3)c2C(=O)O)CO1 | inconclusive: 22.4 µM [inhibitor, single point] | 
Fc1cccc(Cl)c1Cn1c(-c2cccs2)nc2ccccc21 |  | inactive: 13.1% [at 46.1 µM]
CCOc1ccc(C(=O)Nc2cccc(C)n2)cc1 | inconclusive: 7.08 µM [inhibitor, partial curve] | 
Cc1cccc2sc(NNC(=O)c3ccc(S(=O)(=O)N4CCCC(C)C4)cc3)nc12 (configuration not stated) | inconclusive: 29.1 µM [inhibitor, single point] | 
Cc1ccc(-c2nn(-c3cccc(F)c3)cc2CN(Cc2nccn2C)C(C)C)o1 | inconclusive: 35.5 µM [inhibitor, partial curve, poor fit] | 
Cc1cc(-c2ccc(C)c(S(=O)(=O)NCC3CCN(Cc4ccc(F)cc4)CC3)c2)on1 | inconclusive: 6.31 µM [inhibitor, full curve, poor fit] | 
Cc1nc(CSc2ccc(Cl)cc2)cc(N2CC(C)OC(C)C2)n1 (configuration not stated) | inconclusive: 12.6 µM [inhibitor, partial curve, poor fit] | 
COc1ccc(-n2c(C)cc(C(=O)COC(=O)Cn3cnc4ccccc43)c2C)cc1 |  | inactive: 9.78%
O=C1NC2C(=CC(O)C(O)C2O)c2cc3c(cc21)OCO3 (configuration not stated) | active: 1 µM | 
CC(=O)Nc1cc2c(cc1[N+](=O)[O-])-c1ccccc1C2O (configuration not stated) | inconclusive: 35.5 µM [inhibitor, single point] | 
CC(=O)NC(=O)c1ccc(-c2ccc(Cl)cc2)o1 | inconclusive: 35.5 µM [activator, single point] | 
COCC(=O)Nc1sc2c(c1C(=O)OC)CCC(C)C2 (configuration not stated) |  | inactive: 15.7%
COC1C(O)C(C)OC(OC2CCC3(C)C(CCC4C3C(O)CC3(C)C(C5=CC(=O)OC5)CCC43O)C2)C1O (configuration not stated) | inconclusive: 0.282 µM [inhibitor, full curve, poor fit] | 

Structure (SMILES) | Potency | activity change, negative = inhibition
COc1cc(OC)c(NC(=O)C(=O)CC(=O)c2ccc(C)cc2C)cc1Cl | active: 8.2 µM | 
CCn1cc(C(=O)N[C@@H](C)C(=O)NCCCO)c(=O)c2cc3c(cc21)OCO3 | inconclusive: 6.31 µM [inhibitor, single point] | 
CCc1cc(=O)oc2cc(C)cc(OCC(=O)N3CCC(C(=O)NC(C)C)(c4ccccc4)CC3)c12 | inconclusive: 7.94 µM [inhibitor, partial curve, poor fit] | 
CN(Cc1ccccc1)CC(O)COc1ccc(CNCc2ccc(Cl)s2)cc1 (configuration not stated) | inconclusive: 22.4 µM [inhibitor, partial curve, poor fit] | 
c1nnnn1C12CC3CC(CC(C3)C1)C2 |  | inactive: -1.09%
N#C/C(=C/c1cccc(C(F)(F)F)c1)c1nc(CCN2C(=O)c3ccccc3C2=O)cs1 | inconclusive: 4.11 µM [activator, partial curve] | 
Cc1cc(C)cc(NC(=O)CCCn2c3ccccc3c(=O)c3ccccc32)c1 | inconclusive: 17.8 µM [inhibitor, partial curve, poor fit] | 
CC1(C)N=C(N)N=C(N)N1CCCCc1ccccc1 | inconclusive: 0.562 µM [inhibitor, full curve] | 
CC(=O)C1=C(C)NC(SCC(=O)Nc2nccs2)=C(C#N)C1c1ccccc1Cl (configuration not stated) | inconclusive: 35.5 µM [inhibitor, single point] | 
Cc1ccc(NC(=O)CN(C)C(=O)c2ccccc2Sc2ccccc2C#N)cc1 | inconclusive: 35.5 µM [inhibitor, single point] | 
Cc1cccc(N2CCN(C(=O)c3ccc4c(c3)N(Cc3cccc(Cl)c3)C(=O)c3ccccc3S4=O)CC2C)c1 (configuration not stated) | inconclusive: 35.5 µM [inhibitor, single point] | 
Cc1ccccc1C(=O)N1CCC(C(=O)Nc2ccc(S(=O)(=O)N3CCCC3)cc2)CC1 |  | inactive: 12.5%
O=C1OC(Cc2ccncc2)C(O)=C1C1=NCCCN1 (configuration not stated) | inconclusive: 2.51 µM [activator, single point] | 
Cn1c(=O)c2c(-c3ccccc3)n3c(c2n(C)c1=O)C(c1ccco1)Nc1ccccc1-3 (configuration not stated) | inconclusive: 2.51 µM [inhibitor, partial curve, poor fit] | 
O=C(CCc1c[nH]c2ccccc12)NCc1cccc(Cl)c1 |  | inactive: -18.7% [at 46.1 µM]
Cn1nc(C(=O)N2CCN(c3ccc(F)cc3)CC2)c2c1-c1ccccc1S(=O)(=O)C2 | inconclusive: 35.5 µM [inhibitor, single point] | 
O=C(CNC(=O)c1ccccc1)OCc1cc(=O)n2ccsc2n1 |  | inactive: -21.4% [at 46.1 µM]
CCOc1ccc(S(=O)(=O)N2CCC(C(=O)OC(C)C(=O)N3CCOCC3)CC2)cc1 (configuration not stated) |  | inactive: -5.38%
CC1CCn2c(nc3cc(C(=O)NCc4ccccc4)ccc32)C1 (configuration not stated) |  | inactive: 26% [at 46.1 µM]
O=C(Oc1ccc2c(=O)c(Oc3ccc4ccccc4c3)coc2c1)c1cncc(Br)c1 |  | inactive: -17.2%
Cc1cc(C)cc(NC(=S)NCCc2c[nH]c3ccccc23)c1 | inconclusive: 29.1 µM [inhibitor, single point] | 
